Results: paper PMC8129541
No constants are given. Whether binding was seen depends on the method and setting. In cells and extracts the contact can be indirect. Some binding calls cover weakened binding; strength is not graded here. Sequences can lack the tags named with a protein.

Chains of the proteins cited; added tags and fusions are not shown. Residues count along the entry.
UniProt O75051, residues 35-1894: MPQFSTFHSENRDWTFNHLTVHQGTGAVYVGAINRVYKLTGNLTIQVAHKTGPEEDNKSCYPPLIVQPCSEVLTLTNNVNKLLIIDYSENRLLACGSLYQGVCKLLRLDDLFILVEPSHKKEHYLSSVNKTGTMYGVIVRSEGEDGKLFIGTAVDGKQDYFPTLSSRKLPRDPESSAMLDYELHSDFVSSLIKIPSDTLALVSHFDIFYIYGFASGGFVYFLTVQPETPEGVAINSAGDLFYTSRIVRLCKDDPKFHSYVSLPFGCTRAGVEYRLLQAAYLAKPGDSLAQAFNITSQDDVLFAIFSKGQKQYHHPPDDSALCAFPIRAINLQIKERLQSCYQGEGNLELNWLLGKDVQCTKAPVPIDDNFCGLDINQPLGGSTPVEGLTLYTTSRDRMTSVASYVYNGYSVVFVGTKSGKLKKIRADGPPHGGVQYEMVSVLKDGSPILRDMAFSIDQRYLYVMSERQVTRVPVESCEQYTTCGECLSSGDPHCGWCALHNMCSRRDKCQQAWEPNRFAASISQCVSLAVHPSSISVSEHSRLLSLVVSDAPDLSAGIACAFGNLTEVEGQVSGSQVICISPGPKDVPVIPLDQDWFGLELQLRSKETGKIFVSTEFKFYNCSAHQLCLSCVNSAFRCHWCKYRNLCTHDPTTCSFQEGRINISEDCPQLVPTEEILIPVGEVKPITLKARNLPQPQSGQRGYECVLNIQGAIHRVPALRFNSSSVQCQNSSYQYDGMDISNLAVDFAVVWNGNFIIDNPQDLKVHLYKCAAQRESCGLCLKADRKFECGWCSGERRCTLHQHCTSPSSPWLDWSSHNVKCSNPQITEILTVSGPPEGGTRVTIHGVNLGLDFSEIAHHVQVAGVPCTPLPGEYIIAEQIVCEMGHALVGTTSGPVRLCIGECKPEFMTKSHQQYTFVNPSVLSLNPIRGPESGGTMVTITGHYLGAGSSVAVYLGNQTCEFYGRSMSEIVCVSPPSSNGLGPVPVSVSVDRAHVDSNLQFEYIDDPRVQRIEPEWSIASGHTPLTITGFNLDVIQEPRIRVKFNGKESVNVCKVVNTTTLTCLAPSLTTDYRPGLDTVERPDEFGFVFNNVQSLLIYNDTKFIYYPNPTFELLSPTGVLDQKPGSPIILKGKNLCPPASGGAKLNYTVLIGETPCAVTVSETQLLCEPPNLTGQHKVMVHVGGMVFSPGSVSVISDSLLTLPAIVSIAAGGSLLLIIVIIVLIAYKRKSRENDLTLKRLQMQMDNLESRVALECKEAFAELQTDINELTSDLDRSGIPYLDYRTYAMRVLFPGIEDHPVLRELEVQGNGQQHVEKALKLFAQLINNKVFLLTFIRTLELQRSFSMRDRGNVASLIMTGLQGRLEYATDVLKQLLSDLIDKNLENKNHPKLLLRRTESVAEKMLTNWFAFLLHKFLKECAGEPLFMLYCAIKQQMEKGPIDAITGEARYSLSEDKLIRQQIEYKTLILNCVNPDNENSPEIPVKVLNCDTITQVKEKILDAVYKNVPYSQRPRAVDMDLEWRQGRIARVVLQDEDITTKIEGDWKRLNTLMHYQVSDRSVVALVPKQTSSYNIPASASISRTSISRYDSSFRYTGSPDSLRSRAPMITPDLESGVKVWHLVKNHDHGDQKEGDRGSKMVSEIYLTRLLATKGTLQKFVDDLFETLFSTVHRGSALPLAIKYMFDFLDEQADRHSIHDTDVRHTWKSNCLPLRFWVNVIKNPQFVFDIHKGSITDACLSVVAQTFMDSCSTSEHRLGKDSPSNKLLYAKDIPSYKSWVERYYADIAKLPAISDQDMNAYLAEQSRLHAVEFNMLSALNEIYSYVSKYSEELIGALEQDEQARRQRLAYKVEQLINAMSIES

Molecular target: T1, EGFP-tagged human SEMA6B, wild type (pEGFP-C1-human SEMA6B) (human) (UniProt Q9H3T3)
T1 sequence: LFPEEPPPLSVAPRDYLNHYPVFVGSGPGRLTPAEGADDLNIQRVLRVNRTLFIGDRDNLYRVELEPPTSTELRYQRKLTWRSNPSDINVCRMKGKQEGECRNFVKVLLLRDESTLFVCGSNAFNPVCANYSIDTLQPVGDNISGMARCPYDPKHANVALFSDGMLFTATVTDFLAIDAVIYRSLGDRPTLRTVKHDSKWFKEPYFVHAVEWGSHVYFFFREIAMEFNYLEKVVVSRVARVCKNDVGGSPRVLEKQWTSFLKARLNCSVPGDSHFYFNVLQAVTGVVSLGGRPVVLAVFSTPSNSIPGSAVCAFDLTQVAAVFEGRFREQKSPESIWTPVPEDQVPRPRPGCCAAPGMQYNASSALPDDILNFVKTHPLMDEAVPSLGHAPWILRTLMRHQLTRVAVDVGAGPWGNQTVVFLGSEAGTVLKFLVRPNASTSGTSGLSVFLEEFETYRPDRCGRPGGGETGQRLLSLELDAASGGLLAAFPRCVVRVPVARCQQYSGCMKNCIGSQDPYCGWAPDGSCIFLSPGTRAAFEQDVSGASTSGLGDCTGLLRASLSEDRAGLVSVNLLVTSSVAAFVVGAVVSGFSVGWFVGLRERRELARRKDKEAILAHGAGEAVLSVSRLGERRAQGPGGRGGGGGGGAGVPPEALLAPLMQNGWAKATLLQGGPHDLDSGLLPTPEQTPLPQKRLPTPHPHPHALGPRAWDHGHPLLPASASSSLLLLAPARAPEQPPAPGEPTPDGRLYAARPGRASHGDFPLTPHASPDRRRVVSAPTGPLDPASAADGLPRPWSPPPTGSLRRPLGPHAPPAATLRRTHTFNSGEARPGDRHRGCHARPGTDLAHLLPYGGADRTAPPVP
Test: co-IP; HEK-293T cells co-transfected with Myc-tagged PlxnA2 and EGFP-tagged SEMA6B; lysed after 48 h in NP-40 buffer (50 mM Tris pH 7.4, 150 mM NaCl, 1% NP-40); IP with anti-GFP antibody overnight at 4°C, protein A/G agarose beads, five washes with RIPA buffer; blot with anti-Myc; densitometry normalised to GFP, N = 3

Substance: Myc-DDK-tagged human plexin A2 (from UniProt O75051 35-1894) (receptor)
- binding: binds
